In this assay the target is His.Xa.Abeta1-28.GS.p38 fusion protein. Kind of assay: size exclusion chromatography of a 1:2 mixture, SDS-PAGE of the peaks. For orientation: SEC sorts molecules by how far they enter the pores of the column.

No constants are given. Whether binding was seen depends on the method and setting. Some results given as binding are weak or reduced against the parent protein; the word gives no strength.

B1: 60A10-27GS-42D4-Alb (designed binder, not shown: large carriers)
chain: EVQLVESGGGLVQAGGSLRLSCAASGRTFNNYNMGWFRQAPGKEREFVAAVSRSGVSTYYADSVKGRFTISRDNAKNAVYLQMNSLKPEDTAIYYCGAAYRGTAINVRRSYDSWGQGTQVTVSSGGGSGGGGSGGGGSGGGGSGGGGSGGGEVQLVESGGGLVLAGGSLRLSCVHSGPTFSTDTMGWFRQAPGKEREFVAAVTWNSGRTNYADSVKGRFTVSRDNTRNAAYLQMSGLKDEDTAVYYCTAHRLVVGGTSVGDWRYWGQGTQVTVSS
Consider B1, for which the binding result is “binds”.

The values above are taken from patent US20120058118A1.
